Results: the supplement of paper PMC6078165

Test system: BT20
Test: relative JC-1 red fluorescence (viability) vs pre-drug, coculture with fibroblast (fraction); higher = more viable cancer cells
Conditions: 0.1 µM
Experimental: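 JC-1 labelled TNBC cells cocultured 1:1 (1,500 cells each) with CellTrace Violet stained primary or stromal fibroblasts in 384-well plates in FluoroBrite medium, treated with one of 42 anticancer drugs at 0.1, 1, 10 or 100 uM. JC-1 red fluorescence (mitochondrial integrity in cancer cells only) was read by plate reader every 8 h for 72 h. Values are normalised to each well's pre-drug value. The stock of one drug was tenfold lower, so its dose labels may be too high.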

CC(C)C[C@H](NC(=O)[C@@H](COC(C)(C)C)NC(=O)[C@H](Cc1ccc(O)cc1)NC(=O)[C@H](CO)NC(=O)[C@H](Cc1c[nH]c2ccccc12)NC(=O)[C@H](Cc1cnc[nH]1)NC(=O)[C@@H]1CCC(=O)N1)C(=O)N[C@@H](CCCNC(=N)N)C(=O)N1CCC[C@H]1C(=O)NNC(N)=O [Goserelin]
relative JC-1 red fluorescence
Conditions	8 h	16 h	24 h	32 h	40 h
coculture fibroblast: C12385	0.8992	0.783	0.72196	0.6581	0.587
coculture fibroblast: H6013	0.926	0.9155	0.926	0.89	0.873
coculture fibroblast: H6019	0.857	0.799	0.782	0.742	0.707
coculture fibroblast: H6076	0.965	0.893	0.7981	0.754	0.718
coculture fibroblast: H6231	0.791	0.898	0.794	0.728	0.68
coculture fibroblast: HADF	0.923	0.883	0.831	0.785	0.745
coculture fibroblast: HCFa	0.88	0.805	0.758	0.69	0.632
coculture fibroblast: HCPF	0.894	0.896	0.8258	0.777	0.735
coculture fibroblast: HHSteC	0.9068	0.836	0.809	0.724	–
coculture fibroblast: HMF	0.903	0.835	0.759	0.706	–
coculture fibroblast: HPFa	0.973	0.887	0.93	0.857	–
coculture fibroblast: HUF	0.939	0.845	0.854	0.785	–
coculture fibroblast: Hs5	0.935	0.878	0.783	0.736	–
coculture fibroblast: Hs27A	0.795	0.966	0.902	0.886	–
coculture fibroblast: Hs343T	0.917	0.893	0.7932	0.739	–
coculture fibroblast: WS1	0.873	0.7754	0.719	0.634	–

Values are relative to the signal before dosing, not to a vehicle control; the signal also falls without drug.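 Labels refer to human fibroblasts, largely primary: uterine (C12385, HUF), lung (H6013), bone (Hs27A), adrenal (HADF), skin (WS1), plus mammary HMF and breast cancer-associated Hs343T. Cancer lines are basal-like or mesenchymal-like triple-negative breast cancer. The paper counts as hits responses shifting over 3x the replicate standard deviation. The tissue of the other fibroblasts is not given here.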
